We go through three sequences from publication PMC11574364.

Holding throughout (test): human ORF protein microarray
The target in one series is T1, DAK (Homo sapiens) (UniProt Q3LXA3).
T1 sequence (looked up, limits assumed): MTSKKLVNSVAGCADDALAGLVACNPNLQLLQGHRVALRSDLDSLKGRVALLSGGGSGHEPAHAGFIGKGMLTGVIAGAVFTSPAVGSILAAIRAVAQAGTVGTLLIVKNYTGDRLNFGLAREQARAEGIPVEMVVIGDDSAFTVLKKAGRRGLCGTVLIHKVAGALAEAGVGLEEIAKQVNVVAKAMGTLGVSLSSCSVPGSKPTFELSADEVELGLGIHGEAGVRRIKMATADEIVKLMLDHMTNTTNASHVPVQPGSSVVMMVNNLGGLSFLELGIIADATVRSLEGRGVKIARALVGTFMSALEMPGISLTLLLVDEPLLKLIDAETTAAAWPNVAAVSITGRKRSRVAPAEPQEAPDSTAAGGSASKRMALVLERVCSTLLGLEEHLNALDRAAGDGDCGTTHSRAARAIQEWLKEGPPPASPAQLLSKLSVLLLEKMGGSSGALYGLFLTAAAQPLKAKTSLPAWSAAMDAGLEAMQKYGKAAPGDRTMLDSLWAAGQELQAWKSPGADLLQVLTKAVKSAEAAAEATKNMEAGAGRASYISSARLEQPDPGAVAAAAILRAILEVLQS
The note with it: 5' phosphate; Domain array: 20 mM Tris-HCl pH 7.4, 200 mM KCl, 0.2 mM EDTA, 0.05% NP40, 2 ug/ul heparin, overnight 4 C. ORF array: PBS pH 7.0 with RNase inhibitor, 100 ng RNA, 1 h.; recombinant protein; protein details: N-terminal GST-6xHis; label: internal DY647 at G18; letters put together from the description.

The target in a further series is T2, KLHDC3 (Homo sapiens) (UniProt Q9BQ90).
T2 sequence (looked up, limits assumed): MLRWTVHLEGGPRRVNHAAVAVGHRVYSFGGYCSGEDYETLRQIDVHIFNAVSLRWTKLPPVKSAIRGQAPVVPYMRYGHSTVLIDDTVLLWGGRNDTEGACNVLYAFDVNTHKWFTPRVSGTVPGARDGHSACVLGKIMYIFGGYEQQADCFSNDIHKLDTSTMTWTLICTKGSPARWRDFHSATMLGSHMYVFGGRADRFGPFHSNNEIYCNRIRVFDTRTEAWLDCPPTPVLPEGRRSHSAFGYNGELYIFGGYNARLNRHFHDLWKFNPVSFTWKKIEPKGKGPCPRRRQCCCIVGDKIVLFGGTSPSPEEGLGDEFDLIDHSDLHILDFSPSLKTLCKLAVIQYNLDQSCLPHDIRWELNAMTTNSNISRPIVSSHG
As to conditions: 5' phosphate; Domain array: 20 mM Tris-HCl pH 7.4, 200 mM KCl, 0.2 mM EDTA, 0.05% NP40, 2 ug/ul heparin, overnight 4 C. ORF array: PBS pH 7.0 with RNase inhibitor, 100 ng RNA, 1 h.; recombinant protein; protein details: N-terminal GST-6xHis; label: internal DY647 at G18; letters put together from the description.

For the next series, the target named is T3, SPATA2L (Homo sapiens) (UniProt Q8IUW3).
T3 sequence (looked up, limits assumed): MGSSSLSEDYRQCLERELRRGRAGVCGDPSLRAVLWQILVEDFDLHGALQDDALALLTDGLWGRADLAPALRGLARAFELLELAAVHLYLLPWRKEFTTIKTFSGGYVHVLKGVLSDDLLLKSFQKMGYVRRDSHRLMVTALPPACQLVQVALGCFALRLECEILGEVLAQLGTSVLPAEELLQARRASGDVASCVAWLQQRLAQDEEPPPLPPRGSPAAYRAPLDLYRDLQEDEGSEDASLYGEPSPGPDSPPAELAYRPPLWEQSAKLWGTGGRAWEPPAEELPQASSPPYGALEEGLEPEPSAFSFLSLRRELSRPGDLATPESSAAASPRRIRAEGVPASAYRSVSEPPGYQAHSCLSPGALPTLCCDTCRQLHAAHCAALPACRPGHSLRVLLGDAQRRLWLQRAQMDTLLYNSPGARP
The note with it: 5' phosphate; Domain array: 20 mM Tris-HCl pH 7.4, 200 mM KCl, 0.2 mM EDTA, 0.05% NP40, 2 ug/ul heparin, overnight 4 C. ORF array: PBS pH 7.0 with RNase inhibitor, 100 ng RNA, 1 h.; recombinant protein; protein details: N-terminal GST-6xHis; label: internal DY647 at G18; letters put together from the description.

The target of a further series is T4, SERPINA10 (Homo sapiens) (UniProt Q9UK55).
T4 sequence (looked up, limits assumed): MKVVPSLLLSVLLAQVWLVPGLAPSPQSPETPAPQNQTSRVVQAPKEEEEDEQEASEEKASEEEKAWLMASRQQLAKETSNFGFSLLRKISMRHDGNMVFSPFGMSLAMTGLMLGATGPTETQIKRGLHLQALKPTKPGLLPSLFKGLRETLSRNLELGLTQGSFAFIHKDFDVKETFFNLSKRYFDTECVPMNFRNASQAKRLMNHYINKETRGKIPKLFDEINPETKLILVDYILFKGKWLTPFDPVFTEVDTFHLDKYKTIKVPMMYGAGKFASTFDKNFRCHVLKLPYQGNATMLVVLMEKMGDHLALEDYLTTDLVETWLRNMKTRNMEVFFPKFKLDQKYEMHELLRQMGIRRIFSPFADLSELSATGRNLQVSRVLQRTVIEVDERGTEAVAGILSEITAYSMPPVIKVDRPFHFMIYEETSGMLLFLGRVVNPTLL
As to conditions: 5' phosphate; Domain array: 20 mM Tris-HCl pH 7.4, 200 mM KCl, 0.2 mM EDTA, 0.05% NP40, 2 ug/ul heparin, overnight 4 C. ORF array: PBS pH 7.0 with RNase inhibitor, 100 ng RNA, 1 h.; recombinant protein; protein details: N-terminal GST-6xHis; label: internal DY647 at G18; letters put together from the description.

In the next series the target is T5, PAEP (Homo sapiens) (UniProt P09466).
T5 sequence (looked up, limits assumed): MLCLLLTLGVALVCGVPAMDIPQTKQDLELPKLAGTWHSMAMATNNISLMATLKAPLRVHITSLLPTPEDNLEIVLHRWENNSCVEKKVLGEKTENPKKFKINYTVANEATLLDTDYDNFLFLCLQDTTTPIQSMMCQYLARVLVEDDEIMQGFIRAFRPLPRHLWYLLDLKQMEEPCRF
As to conditions: 5' phosphate; amino-C6 U at position 18; Domain array: 20 mM Tris-HCl pH 7.4, 200 mM KCl, 0.2 mM EDTA, 0.05% NP40, 2 ug/ul heparin, overnight 4 C. ORF array: PBS pH 7.0 with RNase inhibitor, 100 ng RNA, 1 h.; recombinant protein; protein details: N-terminal GST-6xHis; label: internal Cy5 or DY647.

The target in another series is T6, FBXL7 (Homo sapiens) (UniProt Q9UJT9).
T6 sequence (looked up, limits assumed): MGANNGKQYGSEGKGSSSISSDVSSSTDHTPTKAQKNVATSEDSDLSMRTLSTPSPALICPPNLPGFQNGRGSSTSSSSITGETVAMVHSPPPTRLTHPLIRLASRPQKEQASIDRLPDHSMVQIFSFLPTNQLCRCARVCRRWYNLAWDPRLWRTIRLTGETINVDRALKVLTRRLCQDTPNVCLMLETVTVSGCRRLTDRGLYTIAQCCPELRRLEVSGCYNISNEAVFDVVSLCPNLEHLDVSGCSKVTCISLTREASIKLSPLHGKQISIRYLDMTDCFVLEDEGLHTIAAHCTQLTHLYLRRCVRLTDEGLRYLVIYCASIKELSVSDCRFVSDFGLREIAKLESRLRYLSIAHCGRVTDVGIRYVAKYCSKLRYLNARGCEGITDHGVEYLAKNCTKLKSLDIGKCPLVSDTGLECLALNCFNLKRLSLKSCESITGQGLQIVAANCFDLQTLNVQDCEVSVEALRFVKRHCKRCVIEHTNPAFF
As to conditions: 5' phosphate; amino-C6 U at position 18; Domain array: 20 mM Tris-HCl pH 7.4, 200 mM KCl, 0.2 mM EDTA, 0.05% NP40, 2 ug/ul heparin, overnight 4 C. ORF array: PBS pH 7.0 with RNase inhibitor, 100 ng RNA, 1 h.; recombinant protein; protein details: N-terminal GST-6xHis; label: internal Cy5 or DY647.

The exact form of at least one protein or probe is not confirmed. Tags and fusion partners may be left off the protein sequences shown.

Turning to “CAGUGCAAUGAUGAAAGGGCAU [miR-130b (internal labeling)]”, the binding result in the series with DAK (Homo sapiens) and with KLHDC3 (Homo sapiens) was “binds” in each case.

Take “UAGCUUAUCAGACUGAUGUUGA [miR-21 (internal labeling)]”: the binding result with SPATA2L (Homo sapiens) and in the series with SERPINA10 (Homo sapiens) was “binds” in each case.

Take “UGAGGUAGUAGGUUGUGUGGUU [let-7b (internal labeling)]”: the binding result with PAEP (Homo sapiens) and with FBXL7 (Homo sapiens) was “binds” in each case.
